According to PMC4383634:
These are yes or no findings as the source states them, for the method shown. For part of these data: Binding can be weak; no strength is given. Sequences can lack the tags named with a protein.

Sequences of proteins named here, by UniProt entry; tags and fusion partners are left off. A change or cut given only in a name is not applied to a line headed by its entry.
UniProt P12254: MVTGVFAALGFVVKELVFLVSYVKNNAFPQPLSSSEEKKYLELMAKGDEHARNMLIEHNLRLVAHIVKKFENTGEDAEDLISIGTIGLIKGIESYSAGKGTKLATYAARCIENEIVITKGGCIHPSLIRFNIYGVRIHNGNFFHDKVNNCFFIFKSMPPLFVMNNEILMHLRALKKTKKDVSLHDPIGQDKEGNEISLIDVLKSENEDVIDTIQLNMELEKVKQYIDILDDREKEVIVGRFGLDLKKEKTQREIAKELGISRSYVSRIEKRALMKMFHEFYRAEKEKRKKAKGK
UniProt P06222: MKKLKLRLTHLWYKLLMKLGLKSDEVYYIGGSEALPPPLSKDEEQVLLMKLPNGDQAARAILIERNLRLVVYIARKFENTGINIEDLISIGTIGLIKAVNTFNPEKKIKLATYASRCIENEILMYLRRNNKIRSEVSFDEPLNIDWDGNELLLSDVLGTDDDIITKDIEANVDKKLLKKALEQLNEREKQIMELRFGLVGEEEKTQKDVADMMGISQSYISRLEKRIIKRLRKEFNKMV

B1: GAL4 activation domain-CsfB fusion (protein, UniProt P37534 1-64)
chain: MDETVKLNHTCVICDQEKNRGIHLYTKFICLDCERKVISTSTSDPDYAFYVKKLKSIHTPPLYS
B2: CsfB-StrepII-tagged protein (protein, UniProt P37534 1-64)
chain: B1 chain

Legend:
[1] = target: GAL4 DNA binding domain-σ^(K E93N) fusion (B. subtilis) (UniProt P12254); assay: two-hybrid; GAL4-based yeast two-hybrid; CsfB fused to the activation domain, sigma factors or fragments to the DNA binding domain; lacZ reporter, colony lift assay and β-galactosidase assay in liquid medium
[2] = target: GAL4 DNA binding domain-σ^K fusion (B. subtilis) (UniProt P12254); assay: as above
[3] = target: GST-σ^(E N100E) (B. subtilis) (UniProt P06222); assay: pull-down; GST or GST-σ^E fusions on glutathione beads incubated with CsfB-Strep II (100 nM); after washing, eluted proteins immunoblotted with anti-Strep II tag antibody; both purified

| Binder | binding [1] | binding [2] | binding [3] |
| --- | --- | --- | --- |
| B1 | binds | no binding |  |
| B2 |  |  | no binding (tested: 100 nM) |
